Taken from: PubChem BioAssay AID1259308 (NCATS, 2017)
This is an unselected part of about 59,000 deposited reagents. About 1,510 of all reagents (2.6%) count as active. 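Calls use total luciferase alone and ignore viability, so some active siRNAs may act by altering cell number.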 The numbers tell different reagents against one gene apart. Reagent sequences are not shown.

- Purpose: 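Candidate targets for better recombinant protein yield in mammalian cells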 (primary screen)
- Cells: human HEK293 embryonic kidney cells stably expressing firefly luciferase (HEK-CMV-Luc2-Hygro)
- Knock-down reagent: single siRNA against human genes, 0.8 pmol siRNA per well
- Duration: 72 h
- Detection: 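Luciferase light (ONE-Glo) measured on one replicate plate set and viability (CellTiter-Glo) on the other, scaled to a negative control siRNA, with robust z-scores and luciferase per cell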
- Direction: total luciferase, z-score and total luciferase, % of control: higher = more reporter protein produced; luciferase per cell, z-score: higher = more reporter output per viable cell; viable cells, % of control: higher = more viable cells
- Hit rule: 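Active when the median/MAD z-score for overall luciferase is greater than 3; a gene was taken forward for validation with new siRNAs if at least two of its three siRNAs passed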
- Calls: active = raised luciferase; inactive = no rise

target gene,siRNA no.,"total luciferase, z-score","total luciferase, % of control","luciferase per cell, z-score","viable cells, % of control",call
RPL7P9,1,-2.78,26.7,-1.75,47.2,inactive
RPL7P9,2,-3.17,18.8,-2.61,41.8,inactive
RPL7P9,3,-3.05,21.2,-3.08,53.4,inactive
SLC14A1,1,-0.258,76.8,-0.126,88.6,inactive
SLC14A1,2,1.42,110,0.716,102,inactive
SLC14A1,3,-1.05,61.1,-2.34,126,inactive
SNED1,1,0.116,84.2,-0.371,104,inactive
SNED1,2,-0.331,75.3,0.803,68.1,inactive
SNED1,3,0.193,85.7,0.459,84.9,inactive
CHIC1,1,1.71,116,0.696,108,inactive
CHIC1,2,0.376,89.4,0.462,88.4,inactive
CHIC1,3,1.23,106,0.62,101,inactive
SRSF8CP,1,0.638,94.6,0.0948,103,inactive
SRSF8CP,2,0.113,84.1,0.0902,91.8,inactive
SRSF8CP,3,-2.41,34,-1.56,57.2,inactive
CPQ,1,1.94,120,1.44,92.2,inactive
CPQ,2,-0.147,79,-0.784,108,inactive
CPQ,3,0.178,85.4,-0.192,100,inactive
EI24,1,3.5,152,1.77,106,active
EI24,2,0.83,98.4,0.374,99.6,inactive
EI24,3,0.242,86.7,-0.249,103,inactive
DKKL1,1,-2.08,40.5,-2.32,83.4,inactive
DKKL1,2,0.159,85.1,0.375,86.1,inactive
DKKL1,3,-0.538,71.2,-0.609,93.4,inactive
LINC00977,1,0.827,98.3,1.43,75.5,inactive
LINC00977,2,-0.943,63.1,-0.247,75.3,inactive
LINC00977,3,-1.96,43,-1.62,73.5,inactive
AQP10,1,-0.236,77.2,-0.18,90.4,inactive
AQP10,2,-1.79,46.4,-1.08,68.9,inactive
AQP10,3,-0.233,77.3,-0.812,107,inactive
FGFBP3,1,-1.47,52.7,0.806,47.6,inactive
FGFBP3,2,-0.788,66.2,-0.348,81.1,inactive
FGFBP3,3,4.27,167,3.14,81.6,active
NOP14,1,-1.69,48.4,-1.42,78.5,inactive
NOP14,2,-0.729,67.4,-1.1,101,inactive
NOP14,3,-1.1,60,-0.375,74,inactive
AOAH,1,-1.14,59.2,-0.278,71.1,inactive
AOAH,2,0.747,96.7,0.902,85.3,inactive
AOAH,3,-0.306,75.8,-0.206,89.4,inactive
PTGER3,1,0.207,86,-0.00528,96.2,inactive
PTGER3,2,-0.228,77.4,-0.728,105,inactive
PTGER3,3,0.704,95.9,0.0383,106,inactive
C19orf12,1,0.557,93,0.873,82.5,inactive
C19orf12,2,0.133,84.5,0.206,89.5,inactive
C19orf12,3,-1.59,50.2,-1.98,94.4,inactive
TBC1D5,1,1.99,121,1.68,87.1,inactive
TBC1D5,2,0.413,90.1,1.66,65,inactive
TBC1D5,3,1.27,107,1.62,78.2,inactive
RFT1,1,0.551,92.8,0.704,86.2,inactive
RFT1,2,0.698,95.8,0.417,95.9,inactive
RFT1,3,-0.171,78.5,1.3,62.3,inactive
KRTAP27-1,1,0.0135,82.2,0.492,80.7,inactive
KRTAP27-1,2,1.23,106,1.37,82.9,inactive
KRTAP27-1,3,-0.633,69.3,-0.0865,79.2,inactive
DNAL4,1,-0.288,76.2,-0.727,103,inactive
DNAL4,2,0.941,101,1.65,72.9,inactive
DNAL4,3,-1.5,52.1,-1.03,76.4,inactive

A few values from the list:
SRSF8CP #2, luciferase per cell, z-score → 0.0902
Value of CPQ #3 under “total luciferase, % of control”: 85.4
CPQ #1, call: inactive
